# Patent US12721846B2, “Methods for treating behavioral and psychological symptoms in patients with dementia” (SUVEN LIFE SCIENCES LIMITED, priority 2019, dated 2026)
# Tested on: norepinephrine and dopamine levels in prefrontal cortex
# Assay: Microdialysis: modulation of norepinephrine and dopamine levels in cortex
# Assay type: in vivo, rat
# Conditions: male Wistar rats, masupirdine 3 mg/kg p.o., donepezil or memantine 1 mg/kg s.c.
# Description: Male Wistar rats (240-300 g body weight) were stereotaxically implanted with a microdialysis guide cannula in prefrontal cortex (PFC; AP: +3.2 mm, ML: −0.5 mm, DV: −1.0 mm) under isoflurane anesthesia. […] The rats were allowed to recover individually for four days in a round bottom Plexiglas bowl with free access to feed and water.
# Sixteen hours before start of the study, a pre-equilibrated microdialysis probe (4 mm dialysis membrane) was inserted into PFC through the guide cannula. On the day of study, probe was perfused with artificial cerebrospinal fluid (aCSF; NaCl 150 mmol, KCl 3.0 mmol, MgCl2 0.9 mmol, CaCl2. 2H2O 1.7 mmol, pH 6.2) at a flow rate of 1.5 μL/min and a stabilization period of 2 h was maintained. […] Dialysates were stored below −50° C. prior to analysis.
# Norepinephrine and dopamine levels in dialysates were quantified using LC-MS/MS method.
# Statistical significance was considered at a p value less than 0.05.
compound,measurement,value
COc1cc2c(cc1OC)C(=O)C(CC1CCN(Cc3ccccc3)CC1)C2 (centres unmarked) [donepezil],"cortical dopamine levels, AUC of percent change",307.79±52.22
same,"cortical norepinephrine levels, AUC of percent change",333.77±39.77
